Results taken from PubChem BioAssay AID2685 (National Center for Advancing Translational Sciences (NCATS), 2010).
Out of some 320,000 compounds screened, about 2,100 (0.66%) were called active. Inconclusive means that the source gave no clear call. Such entries were picked first, then a sample of the others. The call rests on the fitted dose curve; in most records, active means well fitted inhibition curve with a large enough effect in the signal ratio, with a control signal flat (not every such curve was filed as active); inconclusive means small, poorly fitted or top-dose-only effect, or effect the other way, or a change in a side signal; inactive means flat fitted curve, though single readings scatter; the % refers to the signal ratio. Where the call is inconclusive, the potency comes from a doubtful curve fit.

Test: qHTS Assay for Lipid Storage Modulators in Drosophila S3 Cells
Conditions: BODIPY lipid droplet fluorescence, 18-24 h, cells fed with added oleic acid; lipid storage change, negative = inhibition: at 46.1 µM (top of the series) unless noted
Procedure, shortened: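 Laser-scanning cytometry quantifies lipid droplet accumulation (500–530 nm total intensity; droplet/cell object ratio) in oleic acid-fed (400 uM added) Drosophila S3 cells treated with a concentration series. 20 uM Triacsin C defined 100% inhibition.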
On the % scale 0 is the no-effect control and ±100 the full control effect; potency means the concentration at half of the fitted maximal effect.

| Structure (SMILES) | lipid storage change, negative = inhibition | Potency |
| --- | --- | --- |
| CN(CC(=O)Nc1ccccc1Br)C(=O)COc1ccc2ccccc2c1 | inconclusive: -64.1% | – |
| Cn1cccc1C(=O)OCC(=O)NC(=O)NC1CCCCC1 | inconclusive: 7.78% | – |
| O=C(c1coc2ccc(O)cc12)C1CC1 | inconclusive: 26.6% | – |
| C=CCc1ccccc1OCC(O)CN1CCN(c2ccc(OC)cc2)CC1 (stereo not drawn) | inconclusive: 0.148% | – |
| O=S(=O)(c1ccc(F)c(Cl)c1)N1CCN(C/C=C/c2ccccc2)CC1 | inconclusive: -4.47% | – |
| O=C(NCc1cccnc1)NC1(c2ccccc2)CC1 | inconclusive: 3.32% [at 9.22 µM] | – |
| CCOC(=O)c1ccc(N=C2C(=S)N(c3ccc(C(=O)OCC)cc3)C(=N)N2/N=C/c2ccccc2)cc1 | inconclusive: 4.37% | – |
| COC(=O)[C@@]12CCCCN1[C@H](c1ccc(-c3ccc4c(c3)OCO4)c(OC)c1)[C@@H]1C(=O)N(C)C(=O)[C@@H]12 | inconclusive: 6.79% | – |
| COc1ccc(OC(C)C(=O)N2CCOCC2)cc1 (stereo not drawn) | inconclusive: -20.9% | – |
| CS(=O)(=O)N(CCc1ccccc1)CC(=O)NCc1ccco1 | – | inconclusive: 18.4 µM [falling, single point] |
| COc1ccc(C(C(=O)NC2CCCC2)N(CC2CCCO2)C(=O)Cc2cccs2)cc1OC (stereo not drawn) | inconclusive: 10.5% | – |
| Cc1ccc(C)c(S(=O)(=O)N2CCN(CC(=O)NC(=O)NCc3ccco3)CC2)c1 | inconclusive: 8.72% | – |
| CCOc1ccc(C(=O)NNC(=O)c2cc(S(=O)(=O)N3CCOCC3)ccc2Cl)cc1 | – | active: 25.9 µM |
| CSc1ccccc1NC(=O)c1ccccc1C | inconclusive: -21.8% | – |
| N#Cc1c(NC(=O)c2cc([N+](=O)[O-])ccc2N2CCOCC2)sc2c1CCCC2 | – | inconclusive: 1.64 µM [activator, full curve, poor fit] |
| COc1ccc2[nH]cc(CCN3C(=O)CCC3=O)c2c1 | inconclusive: -13.9% | – |
| O=C(NC12CC3CC(CC(C3)C1)C2)c1ccc(-c2ccccc2Cl)o1 | inconclusive: -96.5% | – |
| COCCN(CCOC)C(=O)C12CCC(C)(C(=O)C1)C2(C)C (stereo not drawn) | inconclusive: -41.6% | – |
| N#CCC(=O)N1CCCCCC1 | inconclusive: 66.9% | – |
| CC(C)(C)c1ccc(C[C@H](C(=O)O)N2C(=O)c3ccc(C(=O)O)cc3C2=O)cc1 | inconclusive: -3.36% | – |
| CCOC(=O)N1CCN(C(=O)c2cc3cc(Br)ccc3oc2=O)CC1 | inconclusive: 0.646% | – |
| CC(=O)NC12CC3CC(C1)CC(C(=O)N1CCN(S(=O)(=O)c4cccc(F)c4)CC1)(C3)C2 | inconclusive: 9.11% | – |
| N#CCCn1cc(C(=O)Nc2ccc([N+](=O)[O-])cc2)c(-c2cc3ccccc3o2)n1 | inconclusive: -6.06% | – |
| COc1ccc(/C=N/N2CCN(Cc3ccccc3)CC2)cc1 | – | inconclusive: 5.17 µM [activator, full curve] |
| CCC(C)c1ccc(OCC(=O)Nc2cccc(C(=O)Nc3ccc(C(=O)O)cc3)c2)cc1 (stereo not drawn) | – | inconclusive: 29.1 µM [activator, single point] |
| Cc1cc(C)n2nc(C(=O)OCC(=O)NC(=O)c3ccccc3)nc2n1 | inconclusive | – |

Three of the compounds above, as labelled records.
CCOC(=O)c1ccc(N=C2C(=S)N(c3ccc(C(=O)OCC)cc3)C(=N)N2/N=C/c2ccccc2)cc1
  lipid storage change, negative = inhibition: inconclusive: 4.37%
COC(=O)[C@@]12CCCCN1[C@H](c1ccc(-c3ccc4c(c3)OCO4)c(OC)c1)[C@@H]1C(=O)N(C)C(=O)[C@@H]12
  lipid storage change, negative = inhibition: inconclusive: 6.79%
COc1ccc(OC(C)C(=O)N2CCOCC2)cc1 (stereo not drawn)
  lipid storage change, negative = inhibition: inconclusive: -20.9%

Continued.

| Structure (SMILES) | lipid storage change, negative = inhibition | Potency |
| --- | --- | --- |
| C#CCOc1c(/C=C\c2nc(O)c([N+](=O)[O-])c(=O)[nH]2)cc(Br)cc1OC | – | inconclusive: 29.1 µM [activator, single point] |
| COC(=O)CCNC(=O)Cc1c(C)n(C(=O)c2ccc(Cl)cc2)c2ccc(OC)cc12 | – | inconclusive: 4.61 µM [activator, single point] |
| Cc1ccc(-n2c(SCC(=O)N3CCC(C(=O)O)CC3)nc3ccccc3c2=O)cc1C | inconclusive: -21.6% | – |
| Cn1c(=O)c2c(nc(Oc3ccc4c(c3)OCO4)n2Cc2ccc(Cl)cc2)n(C)c1=O | inconclusive: -93.1% | – |
| Cc1cc(-c2n[nH]c(=S)n2/N=C/c2ccco2)n[nH]1 | – | inconclusive: 3.66 µM [activator, full curve, poor fit] |
| COc1cccc(C(=O)C2CCCN(C/C=C/c3ccccc3OC)C2)c1 (stereo not drawn) | inconclusive: 18.7% | – |
| Nc1ccc(C(=O)N/N=C/c2sc(N3CCOCC3)nc2-c2ccccc2)cc1 | – | inconclusive: 1.16 µM [activator, full curve] |
| O=C(CSc1nncs1)N1CCN(C(=O)c2ccco2)CC1 | inconclusive: -5.65% | – |
| O=c1c2ccccc2[nH]c(=S)n1Cc1cccnc1 | – | inconclusive: 0.58 µM [activator, full curve] |
| CCN(CC)S(=O)(=O)c1cccc(C(=O)N/N=C/c2ccc(OC)c(O)c2)c1 | inconclusive: 34.2% | – |
| CCCCn1c(-c2csc3c2CCCC3)n[nH]c1=S | inconclusive: 160% | – |
| Cc1cccc(NC(=O)COC(=O)C2C3CC4OC(=O)C2C4C3)c1C (stereo not drawn) | inconclusive: 22.7% | – |
| COc1cc2c(cc1OC)CN(C(=O)c1cc(Cl)nc(Cl)c1)CC2 | inconclusive: 21.8% | – |
| CCc1ccc(CN2C(=O)c3ccccc3C2C(=O)NC(C)CC)cc1 (stereo not drawn) | – | inconclusive: 18.4 µM [falling, single point] |
| CCN(CC)C(=O)Oc1ccc2c(=O)c(-c3ccccc3)coc2c1 | inconclusive: 18.2% | – |
| COc1ccc(C(=O)Nc2ccc(Cl)c(Cl)c2)c(OC)n1 | inconclusive: 79.7% | – |
| NC(N)=NS(=O)(=O)c1ccc(NC(=S)NC(=O)c2sc3ccccc3c2Cl)cc1 | inconclusive: 30.2% | – |
| O=C(/C=N/O)Nc1ccccc1C(=O)O | inconclusive: -23.2% | – |
| CC1CN(C(=O)c2ccccc2OCc2ccccc2Cl)CC(C)O1 (stereo not drawn) | inconclusive: 11.6% | – |
| COc1cccc(C(=O)Nc2ccc(C(=O)NCC(C)C)cc2)c1 | inconclusive: 14.2% [at 9.22 µM] | – |
| Cc1ccc(CN2CCc3[nH]c(=O)[nH]c(=O)c3C2)cc1 | inconclusive: 5.67% | – |
| CCOCCCNC(=O)c1c(-c2ccccc2)noc1C | – | active: 20.6 µM |
| CCOc1cc(CNCC2CCCN2CC)cc(Cl)c1OC (stereo not drawn) | inactive | – |
| O=C(NCC1CCCO1)c1ccc2nc(N3CCCCC3)sc2c1 (stereo not drawn) | inconclusive: 30.2% | – |
| CN(C1CCCCC1)S(=O)(=O)c1ccc(C(=O)Nc2sc3c(c2C(N)=O)CC(C)(C)NC3(C)C)cc1 | inconclusive: -60.6% | – |
| COc1ccc(-c2csc3ncnc(N4CCN(c5ccc(OC)cc5)CC4)c23)cc1 | inactive | – |

| Structure (SMILES) | lipid storage change, negative = inhibition | Potency |
| --- | --- | --- |
| COc1cc2c(cc1NC(=O)CC1SC(N3CCCC3)=NC1=O)oc1ccccc12 (stereo not drawn) | – | inconclusive: 0.0046 µM [activator, full curve, poor fit] |
| CC(=O)NC12CC3CC(C1)CC(C(=O)NCc1ccc(C)cc1)(C3)C2 | inconclusive: 21% | – |
| Cc1cc(C)n(C(=O)CNC(=O)c2cccc(Cl)c2)n1 | – | inconclusive: 0.58 µM [activator, single point] |
| CCCSc1ccc(C(=O)Nc2ccc(F)cc2F)cn1 | inconclusive: -22.3% | – |
| Brc1ccc2c(c1)C(C1=NCCN1)c1ccccc1CS2 (stereo not drawn) | inconclusive: 13.7% | – |
| CC(C)CN(CCCNC(=O)CN1C(=O)COc2ccc(S(=O)(=O)N3CCC(C)CC3)cc21)CC(C)C | – | inconclusive: 0.517 µM [activator, full curve, poor fit] |
| O=C(Nc1nccs1)c1ccc2nccnc2c1 | – | inconclusive: 2.91 µM [activator, single point] |
| C/C(=N/NC(=O)c1ccc2nc[nH]c2c1)c1cccs1 | inactive | – |
| Cc1ccc(NS(=O)(=O)c2cccc(C(=O)N3CCCCCC3)c2)cc1 | inconclusive | – |
| CC(Oc1cccc(Cl)c1)C(=O)NCCCCc1ccccc1 (stereo not drawn) | inconclusive: 16.9% | – |
| Cc1cc(C)c(C#N)c(Sc2ccc(N)cc2)n1 | inconclusive: 24.6% | – |
| O=C(CCN1C(=O)[C@H]2CC=CC[C@H]2C1=O)NCc1nc(-c2ccccc2)no1 | – | inconclusive: 0.731 µM [activator, single point] |
| CC(C)n1cc(C(N)=S)c(=O)n(Cc2ccccc2)c1=O | inconclusive: -47.4% | – |
| Cc1cccc(C(=O)N2CCN(c3ccc([N+](=O)[O-])c(NCc4ccco4)c3)CC2)c1 | inconclusive: 2.4% | – |
| COC(=O)c1sc(SC)nc1N | – | inconclusive: 18.4 µM [activator, single point] |
| Cn1c(NNC(=O)c2cccc3ccccc23)cc(=O)n(C)c1=O | inconclusive: -0.894% | – |
| Oc1ccccc1C=Nc1ccccc1-c1nc2ccccc2[nH]1 | – | inconclusive: 18.4 µM [falling, single point] |
| CCC(Sc1nc2cc3c(cc2c(=O)n1Cc1ccco1)OCO3)C(=O)NCCOC (stereo not drawn) | inconclusive: -14.3% | – |
| O=C(CCN1C(=O)c2ccccc2C1=O)Nn1cnnc1 | inconclusive: -31.7% | – |
| COc1ccc(C2C3C(C)=NN=C3CC(C)(O)C2C(C)=O)cc1 (stereo not drawn) | – | inconclusive: 29.1 µM [activator, single point] |
| Cn1c(=O)c(=O)n(C)c2cc(S(=O)(=O)N3CCN(c4ccccc4F)CC3)ccc21 | inconclusive: 13.9% | – |
| CC1CC(=O)Nc2ccccc2N1C(=O)Cn1cnc2ccccc2c1=O (stereo not drawn) | inconclusive: 26.4% | – |
| CCn1c(C)cc(/C=C2\NC(=O)N(CC(=O)Nc3ccc(F)cc3)C2=O)c1C | – | inconclusive: 18.4 µM [falling, single point] |
| C=CCSc1nnc2nc3c(nn12)c1cc(C)ccc1n3CC=C | inconclusive: 12.8% | – |
| CCCCNC(=O)C1Cc2cc(S(=O)(=O)N3CCCCC3)ccc2N1C(C)=O (stereo not drawn) | inconclusive: -100% | – |
| CCN(c1ccccc1)S(=O)(=O)c1ccc2c(c1)N(C(C)=O)CCO2 | inconclusive: -33.3% | – |
